Source: patent publication US6060481A, “Method for improving insulin sensitivity using an adenosine receptor antagonist” (priority 1999, dated 2000)

Test: Body weight of lean and obese Zucker rats after one week of treatment
Assay type: in vivo
Conditions: for Body weight: 12 mg/kg every 12 h for 1 wk

## CCCn1c(=O)c2[nH]c(-c3ccc(C=CC(=O)O)cc3)nc2n(CCC)c1=O [BWA1433, 1,3-dipropyl-8-(p-acrylic)phenylxanthine]
Lean rats
  Body weight: 182 ± 5 g
Obese rats
  Body weight: 260 ± 11 g
One week treatment, either lean or obese animals
  Change in body weight: did not produce significant changes
